These are yes or no findings as the source states them, for the method shown. In cells and extracts the contact can be indirect. Some results given as binding are weak or reduced against the parent protein; the word gives no strength.

Protein sequences, listed by entry. Tags and fused reporters are not part of them. Residues count along the entry.
UniProt Q99835, residues 28-787: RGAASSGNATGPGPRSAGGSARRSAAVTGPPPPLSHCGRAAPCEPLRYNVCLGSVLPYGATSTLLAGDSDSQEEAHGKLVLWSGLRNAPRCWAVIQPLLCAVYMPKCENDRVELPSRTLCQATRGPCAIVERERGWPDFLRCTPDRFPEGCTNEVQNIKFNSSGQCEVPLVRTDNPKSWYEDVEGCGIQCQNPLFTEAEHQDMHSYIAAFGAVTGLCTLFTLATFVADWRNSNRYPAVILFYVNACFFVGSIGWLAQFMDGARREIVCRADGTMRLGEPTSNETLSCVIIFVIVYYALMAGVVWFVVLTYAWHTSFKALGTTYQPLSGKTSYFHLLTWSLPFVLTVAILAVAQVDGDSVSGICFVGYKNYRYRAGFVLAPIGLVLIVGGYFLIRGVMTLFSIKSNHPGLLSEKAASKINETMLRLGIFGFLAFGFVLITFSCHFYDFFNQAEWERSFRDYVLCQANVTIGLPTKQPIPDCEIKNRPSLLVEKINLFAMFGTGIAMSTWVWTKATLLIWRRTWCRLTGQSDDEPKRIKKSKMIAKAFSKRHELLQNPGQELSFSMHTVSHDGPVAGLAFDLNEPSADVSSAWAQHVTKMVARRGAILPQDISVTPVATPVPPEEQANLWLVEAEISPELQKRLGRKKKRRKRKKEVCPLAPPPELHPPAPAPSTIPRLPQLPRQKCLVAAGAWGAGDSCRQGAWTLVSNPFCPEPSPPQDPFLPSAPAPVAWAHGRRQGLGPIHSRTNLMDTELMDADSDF
UniProt Q9NS00: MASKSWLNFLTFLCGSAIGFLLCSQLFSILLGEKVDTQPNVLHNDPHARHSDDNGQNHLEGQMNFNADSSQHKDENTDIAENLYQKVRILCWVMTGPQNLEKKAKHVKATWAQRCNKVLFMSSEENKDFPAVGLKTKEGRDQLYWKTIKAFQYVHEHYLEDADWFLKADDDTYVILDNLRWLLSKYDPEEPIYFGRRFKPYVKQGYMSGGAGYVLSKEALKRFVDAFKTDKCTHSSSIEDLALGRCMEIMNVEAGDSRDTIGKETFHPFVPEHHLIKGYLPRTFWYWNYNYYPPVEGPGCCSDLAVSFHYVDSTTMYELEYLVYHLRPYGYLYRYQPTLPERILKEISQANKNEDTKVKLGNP

This assay concerns the target Smoothened (SMO) (human) (UniProt Q99835). Put plainly: reciprocal co-immunoprecipitation from A673 cell lysate (anti-SMO or anti-C1GALT1 IP, immunoblot).

Consider “core 1 synthase, glycoprotein-N-acetylgalactosamine 3-beta-galactosyltransferase 1 (C1GALT1) (from UniProt Q9NS00 1-363) (enzyme)”, for which the binding result is “binds”.

Source of the values: US20260240837A1, “Compositions Reducing the Expression or Activity of C1 GALT1 for Treating Ewing Sarcoma” (University of Massachusetts Medical School, priority 2023, published 2026).
